Laboratory results: PubChem BioAssay AID720505 (Drosophila RNAi Screening Center, 2013)

Assay: 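Fly regulators or components of the CRAC channel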 (primary screen)
Cells: Drosophila S2R+ cells
Reagents: long dsRNA against Drosophila genes
Challenge: thapsigargin (2 µM) in calcium-free buffer to empty internal stores, then 2 mM calcium added back
Detection: 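Stores emptied by 2 µM thapsigargin without calcium, then 2 mM calcium re-added; fluo-4 fluorescence followed by FLIPR in 384-well plates, per-well averaged endpoint, raw; two screen passes, some wells retested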
Scale: calcium signal and retest calcium signal: higher = more calcium entry after store depletion
Hit rule: 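Knock-downs counted as hits when calcium entry dropped relative to STIM1 positive and Rho1 negative controls present on each plate; roughly 1500 genes called, with reductions of differing size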
Meaning of the calls: active = called as lowering calcium entry; inactive = not called
In all, the deposit lists about 20,000 reagents; shown is a random part of those with a known target gene and a result. Of all reagents, about 2,100 (10%) are marked active. 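Raw plate signals without normalisation; calls rest on control-based scores that were not deposited; replicate 2 separates called from uncalled poorly.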 Reagent sequences are not shown. Not given: the amount of reagent, the time to read-out.

The opening 6 records, to show the layout:
| target | amplicon | calcium signal, replicate 1 | calcium signal, replicate 2 | retest calcium signal, replicate 1 | retest calcium signal, replicate 2 | activity call |
| --- | --- | --- | --- | --- | --- | --- |
| SmydA-6 (SET and MYND domain containing, arthropod-specific, member 6) | DRSC07341 | 172 | 129 | – | – | inactive |
| CG6688 | DRSC16094 | 285 | 240 | – | – | inactive |
| cerv (cervantes) | DRSC19681 | 70.2 | 131 | – | – | active |
| C1GalTA (Core 1 Galactosyltransferase A) | DRSC03246 | 99.4 | 151 | – | – | inactive |
| Acp53C14b (Accessory gland protein 53C14b) | DRSC06569 | 165 | 153 | – | – | inactive |
| timeout | DRSC17078 | 77.6 | 108 | – | – | inactive |

The listing, from the start:
| target | amplicon | calcium signal, replicate 1 | calcium signal, replicate 2 | retest calcium signal, replicate 1 | retest calcium signal, replicate 2 | activity call |
| --- | --- | --- | --- | --- | --- | --- |
| SmydA-6 (SET and MYND domain containing, arthropod-specific, member 6) | DRSC07341 | 172 | 129 | – | – | inactive |
| CG6688 | DRSC16094 | 285 | 240 | – | – | inactive |
| cerv (cervantes) | DRSC19681 | 70.2 | 131 | – | – | active |
| C1GalTA (Core 1 Galactosyltransferase A) | DRSC03246 | 99.4 | 151 | – | – | inactive |
| Acp53C14b (Accessory gland protein 53C14b) | DRSC06569 | 165 | 153 | – | – | inactive |
| timeout | DRSC17078 | 77.6 | 108 | – | – | inactive |
| timeout | DRSC17079 | 103 | 108 | – | – | inactive |
| timeout | DRSC17080 | 99.7 | 121 | – | – | inactive |
| timeout | DRSC17081 | 123 | 157 | – | – | inactive |
| timeout | DRSC21535 | 178 | 79.3 | – | – | inactive |
| CG2528 | DRSC03724 | 127 | 115 | – | – | inactive |
| CG5758 | DRSC02889 | 121 | 116 | 113 | 103 | inactive |
| CG5758 | DRSC02890 | 124 | 109 | – | – | inactive |
| flr (flare) | DRSC09787 | 97.8 | 81.5 | – | – | inactive |
| CG15021 | DRSC08475 | 57 | 70.5 | 95.3 | 103 | inactive |
| Sp1 | DRSC18717 | 103 | 78.7 | – | – | inactive |
| CG3091 | DRSC18274 | 111 | 126 | – | – | inactive |
| CG3253 | DRSC04350 | 134 | 81.3 | 69.5 | 101 | inactive |
| mu2 (mutator 2) | DRSC08726 | 146 | 101 | – | – | inactive |
| mu2 (mutator 2) | DRSC21534 | 149 | 83.2 | – | – | inactive |
| Kif19A (Kinesin family member 19A) | DRSC16576 | 82.3 | 148 | – | – | inactive |
| CG33752 | DRSC05351 | 122 | 141 | – | – | inactive |
| jvl (javelin-like) | DRSC15495 | 100 | 140 | – | – | inactive |
| CG6425 | DRSC16038 | 132 | 139 | – | – | inactive |
| CG3748 | DRSC02716 | 180 | 128 | – | – | inactive |
| CG11294 | DRSC17777 | 215 | 73.2 | – | – | inactive |
| Lgr1 (Leucine-rich repeat-containing G protein-coupled receptor 1) | DRSC16675 | 59.3 | 83.1 | – | – | active |
| CG12498 | DRSC18635 | 109 | 141 | – | – | inactive |
| upSET | DRSC11051 | 61.9 | 99.5 | – | – | active |
| upSET | DRSC23289 | 134 | 114 | – | – | inactive |
| CG32055 | DRSC10666 | 72.4 | 71.4 | – | – | active |
| Dlish (Dachs ligand with SH3s) | DRSC06016 | 144 | 143 | – | – | inactive |
| CG15370 | DRSC18042 | 76.3 | 79.3 | – | – | inactive |
| CG15370 | DRSC23277 | 110 | 121 | – | – | inactive |
| CG12538 | DRSC14527 | 155 | 224 | – | – | inactive |
| sav (salvador) | DRSC14681 | 231 | 136 | – | – | inactive |
| sav (salvador) | DRSC14682 | 207 | 133 | – | – | inactive |
| Patronin | DRSC06756 | 177 | 146 | – | – | inactive |
| Patronin | DRSC06757 | 190 | 135 | – | – | inactive |
| Patronin | DRSC06994 | 186 | 117 | – | – | inactive |
| CG9302 | DRSC03191 | 76.5 | 102 | – | – | inactive |
| CG3918 | DRSC18331 | 71.7 | 112 | – | – | active |
| CG3918 | DRSC23159 | 102 | 152 | – | – | inactive |
| CG5674 | DRSC02874 | 110 | 141 | – | – | inactive |
| CG5674 | DRSC23176 | 139 | 133 | – | – | inactive |
| ND-30 (NADH dehydrogenase (ubiquinone) 30 kDa subunit) | DRSC08243 | 99.8 | 79.2 | – | – | inactive |
| Vps13D (Vacuolar protein sorting 13D) | DRSC09818 | 66.8 | 78.1 | – | – | inactive |
| Vps13D (Vacuolar protein sorting 13D) | DRSC09819 | 54.1 | 72 | – | – | inactive |
| CG14505 | DRSC06476 | 179 | 176 | – | – | inactive |
| CG31126 | DRSC14623 | 239 | 111 | – | – | inactive |
| Tdc1 (Tyrosine decarboxylase 1) | DRSC04942 | 131 | 144 | – | – | inactive |
| CG12546 | DRSC11676 | 67.1 | 114 | – | – | active |
| Sod1 (Superoxide dismutase 1) | DRSC11286 | 101 | 87.5 | – | – | inactive |
| caz (cabeza) | DRSC20317 | 56.8 | 166 | 157 | 7160 | active |
| caz (cabeza) | DRSC22594 | 126 | 198 | – | – | inactive |
| caz (cabeza) | DRSC23280 | 142 | 157 | – | – | inactive |
